{"source": "patent US10722484B2", "about": "“Methods of cancer treatment” (K-Gen, Inc., priority 2016, dated 2020)", "test_system": "A549 lung cancer cell line", "test": "Combination viability/proliferation assays (384-well IC50 ratio, 96-well MacSynergy II)", "type": "cell-based", "procedure": "A 96-well MacSynergy II format for combination test was also used. […] The analysis was done with the SQRT(Data) scale and the four parameter Hill curve was fitted using XLfit5.1 (the MacSynergy II Excel Spreadsheet) for the inhibition data. Synergy (positive number) or Antagonism (negative number) volumes were calculated. […] Three-dimensional MacSynergy II graphs were generated where positive values indicated synergism and negative values indicated antagonism."}
{"compound": "O=C(CCCCCCC(=O)Nc1ccccc1)NO", "note": "[SAHA, suberoylanilide hydroxamic acid]", "values": [{"measurement": "effect in combination with K101A or K102 in inhibiting the growth of A549 cells", "value": "minor but significant antagonistic effect"}]}
